PubChem BioAssay AID1224830 | NIAID | 2016
Test: 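Regulators of TLR4 signalling towards TNF-alpha in macrophage-like cells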 (primary screen). Cells: human THP-1 monocytic leukaemia cells, TNF dual-luciferase reporter clone, PMA-differentiated to macrophage-like cells. Reagent: siRNA pool against human genes, 50 nM. Duration: LPS for 4 h, given about 3 days after siRNA transfection. Challenge: bacterial LPS (TLR4 ligand), 10 ng/ml. Detection: 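Ratio of firefly to renilla light, scaled to the plate median and expressed as a robust z-score per replicate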. Direction: TNF reporter robust z-score: higher = stronger TNF reporter response to LPS. Rule for the call: 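a well is active when its z-score exceeds 2.8 or falls below -1.5; control wells carry no call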.
The deposit covers about 18,000 reagents; shown is a random part of them. In the full data, about 2,900 (16%) are marked active. 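Calls are made per well; low scores hint the gene aids the LPS response, high scores that it dampens it.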 Entries without a mark were called inactive. Repeated entries: four replicate wells of each siRNA pool.

no.	Gene	TNF reporter robust z-score
1	DRC3	0.71
2	DRC3	1.16
3	DRC3	1.46
4	DRC3	0.99
5	DTX3	-0.55
6	DTX3	-0.29
7	DTX3	3.32 (active)
8	DTX3	0.26
9	GRINA	-1.31
10	GRINA	-1.22
11	GRINA	-1.42
12	GRINA	-0.78
13	CDX4	0.02
14	CDX4	0.68
15	CDX4	0.49
16	CDX4	-1.62 (active)
17	POU2F2	-0.85
18	POU2F2	-0.41
19	POU2F2	-1.84 (active)
20	POU2F2	-0.29
21	WRAP53	-0.88
22	WRAP53	-0.6
23	WRAP53	-0.98
24	WRAP53	-0.58
25	OR2T1	-0.59
26	OR2T1	0.01
27	OR2T1	-1.43
28	OR2T1	-0.31
29	DPEP2	0.38
30	DPEP2	-0.35
31	DPEP2	0.8
32	DPEP2	0.63
33	ASAP2	-0.24
34	ASAP2	-0.85
35	ASAP2	-1.29
36	ASAP2	-0.62
37	SLX1B	-0.84
38	SLX1B	0.67
39	SLX1B	-0.24
40	SLX1B	-0.16
41	NALCN	-1.13
42	NALCN	-0.43
43	NALCN	-0.59
44	NALCN	0.56
45	ANKMY2	-0.52
46	ANKMY2	-0.08
47	ANKMY2	-0.49
48	ANKMY2	0.7
49	SYNGR1	-0.04
50	SYNGR1	-1.67 (active)
51	SYNGR1	-1.03
52	SYNGR1	-1.19
53	ZNF280C	-0.14
54	ZNF280C	0.18
55	ZNF280C	0.75
56	ZNF280C	-0.2
57	STRIP2	-0.95
58	STRIP2	-0.33
59	STRIP2	-0.5
60	STRIP2	-0.17
61	OR10Q1	-1.55 (active)
62	OR10Q1	-1.68 (active)
63	OR10Q1	-1.6 (active)
64	OR10Q1	-1.36
65	ARMC9	-0.95
66	ARMC9	0.1
67	ARMC9	-0.52
68	ARMC9	0.62
69	OR2S2	0.33
70	OR2S2	1.46
71	OR2S2	0.09
72	OR2S2	1.26
73	TESMIN	0.52
74	TESMIN	-0.12
75	TESMIN	-0.5
76	TESMIN	0.65

No new results follow: an excerpt of the list.
no.	Gene	TNF reporter robust z-score
27	OR2T1	-1.43
28	OR2T1	-0.31
29	DPEP2	0.38
30	DPEP2	-0.35
